Measurements: patent US20260365633A1, “Novel PEM Structures for SBX” (Roche Sequencing Solutions, Inc., priority 2023, published 2026)
Some results were stated once for a whole list of compounds, not compound by compound.

Tested on: nucleic acid polymerase
Experiment: PEM activity summary: primer extension on 45mer, 100mer, 150mer, 222mer DNA templates, gel (Table 2)
Type: biochemical
Settings: preliminary functional characterization
Procedure: In some instances, the PEM compounds of the present disclosure were tested in primer extension reactions using DNA templates of the following lengths: A) 45mer; B) 100mer; C) 150mer; and D) 222mer.

Cc1cc(C)c(-c2cn(-c3ccc(C(=O)O)c(O)c3)nn2)nc1-c1cn(-c2ccc(C(=O)O)c(O)c2)nn1 [Compound 30, 4,4′-((3,5-dimethylpyridine-2,6-diyl)bis(1H-1,2,3-triazole-4,1-diyl))bis(2-hydroxybenzoic acid)]
Functional Category: PEM effect: PEM effect

CCNC(=O)c1cc(-c2cn(-c3ccc(P(=O)(O)O)cc3)nn2)nc(-c2cn(-c3ccc(P(=O)(O)O)cc3)nn2)c1 [Compound 109, (4-(4-(4-(ethylcarbamoyl)-6-(1-(4-phosphonophenyl)-1H-1,2,3-triazol-4-yl)309yridine-2-yl)-1h-1,2,3-triazol-1-yl)phenyl)phosphonic acid]
Functional Category: PEM effect: PEM effect

CC(=O)Nc1cc(-c2cn(-c3ccc(C(=O)O)c(O)c3)nn2)nc(-c2cn(-c3ccc(C(=O)O)c(O)c3)nn2)c1 [Compound 32, 4,4′-((4-acetamidopyridine-2,6-diyl)bis(1H-1,2,3-triazole-4,1-diyl))bis(2-hydroxybenzoic acid)]
Functional Category: PEM effect: PEM effect

CCNC(=O)c1cc(-c2cn(-c3ccc(C(=O)NCC(=O)OC)c(C(F)(F)F)c3)nn2)nc(-c2cn(-c3ccc(C(=O)NCC(=O)OC)c(C(F)(F)F)c3)nn2)c1 [Compound 111, dimethyl 2,2′-((4,4′-((4-(ethylcarbamoyl)pyridine-2,6-diyl)bis(1H-1,2,3-triazole-4,1-diyl))bis(2-(trifluoromethyl)benzoyl))bis(azanediyl))diacetate]
Functional Category: PEM effect: PEM effect

O=C(NCc1ccccc1)c1cc(-c2cn(-c3ccc(C(=O)O)c(O)c3)nn2)nc(-c2cn(-c3ccc(C(=O)O)c(O)c3)nn2)c1 [Compound 68, 4,4′-((4-(benzylcarbamoyl)pyridine-2,6-diyl)bis(1H-1,2,3-triazole-4,1-diyl))bis(2-hydroxybenzoic acid)]
Functional Category: PEM effect: PEM effect

O=C(O)c1ccc(-n2cc(-c3ccc4[nH]c5ccc(-c6cn(-c7ccc(C(=O)O)cc7)nn6)cc5c4c3)nn2)cc1 [Compound 6, 4,4′-((9H-carbazole-3,6-diyl)bis(1H-1,2,3-triazole-4,1-diyl))dibenzoic acid]
Functional Category: PEM effect: PEM effect

O=C(O)c1ccc(-n2cc(-c3cccc(-c4cn(-c5ccc(C(=O)O)c(C(F)(F)F)c5)nn4)n3)nn2)cc1C(F)(F)F [Compound 87, 4,4′-(pyridine-2,6-diylbis(1H-1,2,3-triazole-4,1-diyl))bis(2-(trifluoromethyl)benzoic acid)]
Functional Category: PEM effect: PEM effect

CN1CCN(C(=O)c2cc(-c3cn(-c4ccc(C(=O)O)c(O)c4)nn3)nc(-c3cn(-c4ccc(C(=O)O)c(O)c4)nn3)c2)CC1 [Compound 69, 4,4′-((4-(4-methylpiperazine-1-carbonyl)pyridine-2,6-diyl)bis(1H-1,2,3-triazole-4,1-diyl))bis(2-hydroxybenzoic acid)]
Functional Category: PEM effect: PEM effect

COCCOCCOCCOCCOCCOCCOCCOCCNC(=O)c1cc(-c2cn(-c3ccc(C(=O)O)c(C(F)(F)F)c3)nn2)nc(-c2cn(-c3ccc(C(=O)O)c(C(F)(F)F)c3)nn2)c1 [Compound 247, 4-[4-(6-{1-[4-Carboxy-3-(trifluoromethyl)phenyl]-1H-1,2,3-triazol-4-yl}-4-(N-3,6,9,12,15,18,21,24-octaoxapentacosylcarbamoyl)-2-pyridyl)-1H-1,2,3-triazol-1-yl]-2-(trifluoromethyl)benzoic acid]
Functional Category: PEM effect: PEM effect

O=C(O)c1ccc(-n2cc(CNCc3cn(-c4ccc(C(=O)O)c(O)c4)nn3)nn2)cc1O [Compound 190, 4-{4-[{{[1-(4-Carboxy-3-hydroxyphenyl)-1H-1,2,3-triazol-4-yl]methyl}amino)methyl]-1H-1,2,3-triazol-1-yl}-2-hydroxybenzoic acid]
Functional Category: PEM effect: PEM effect

CCNC(=O)c1cc(-c2cn(-c3ccc(C(F)(F)F)c(C(=O)O)c3)nn2)nc(-c2cn(-c3ccc(C(F)(F)F)c(C(=O)O)c3)nn2)c1 [Compound 75, 5,5′-((4-(ethylcarbamoyl)pyridine-2,6-diyl)bis(1H-1,2,3-triazole-4,1-diyl))bis(2-(trifluoromethyl)benzoic acid)]
Functional Category: PEM effect: PEM effect

N#Cc1cc(-c2cn(-c3cccc(C(=O)O)c3O)nn2)nc(-c2cn(-c3cccc(C(=O)O)c3O)nn2)c1 [Compound 41, 3,3′-((4-cyanopyridine-2,6-diyl)bis(1H-1,2,3-triazole-4,1-diyl))bis(2-hydroxybenzoic acid)]
Functional Category: PEM effect: PEM effect

O=C(O)c1ccc(-n2cc(-c3ccc([N+](=O)[O-])c(-c4cn(-c5ccc(C(=O)O)c(O)c5)nn4)n3)nn2)cc1O [Compound 40, 4,4′-((3-nitropyridine-2,6-diyl)bis(1H-1,2,3-triazole-4,1-diyl))bis(2-hydroxybenzoic acid)]
Functional Category: PEM effect: PEM effect

O=C(NC1CC1)c1cc(-c2cn(-c3ccc(C(=O)O)c(C(F)(F)F)c3)nn2)nc(-c2cn(-c3ccc(C(=O)O)c(C(F)(F)F)c3)nn2)c1 [Compound 88, 4,4′-((4-(cyclopropylcarbamoyl)pyridine-2,6-diyl)bis(1H-1,2,3-triazole-4,1-diyl))bis(2-(trifluoromethyl)benzoic acid)]
Functional Category: PEM effect: PEM effect

O=C(NC1CC1)c1cc(-c2cn(-c3ccc(C(=O)O)c(O)c3)nn2)nc(-c2cn(-c3ccc(C(=O)O)c(O)c3)nn2)c1 [Compound 46, 4,4′-((4-(cyclopropylcarbamoyl)pyridine-2,6-diyl)bis(1H-1,2,3-triazole-4,1-diyl))bis(2-hydroxybenzoic acid)]
Functional Category: PEM effect: PEM effect

O=C(O)c1ccc(-n2cc(-c3cc(C(=O)N4CCCCC4)cc(-c4cn(-c5ccc(C(=O)O)c(O)c5)nn4)n3)nn2)cc1O [Compound 57, 4,4′-((4-(piperidine-1-carbonyl)pyridine-2,6-diyl)bis(1H-1,2,3-triazole-4,1-diyl))bis(2-hydroxybenzoic acid)]
Functional Category: PEM effect: PEM effect

O=C(O)c1ccc(-n2cc(-c3cnc4c(ccc5cc(-c6cn(-c7ccc(C(=O)O)c(O)c7)nn6)cnc54)c3)nn2)cc1O [Compound 59, 4,4′-((1,10-phenanthroline-3,8-diyl)bis(1H-1,2,3-triazole-4,1-diyl))bis(2-hydroxybenzoic acid)]
Functional Category: PEM effect: PEM effect

Cc1cc(-c2cn(-c3ccc(C(=O)O)c(O)c3)nn2)nc(-c2cn(-c3ccc(C(=O)O)c(O)c3)nn2)c1 [Compound 13, 4,4′-((4-methylpyridine-2,6-diyl)bis(1H-1,2,3-triazole-4,1-diyl))bis(2-hydroxybenzoic acid)]
Functional Category: PEM effect: PEM effect

CCCNC(=O)c1cc(-c2cn(-c3ccc(C(=O)O)c(O)c3)nn2)nc(-c2cn(-c3ccc(C(=O)O)c(O)c3)nn2)c1 [Compound 52, 4,4′-((4-(propylcarbamoyl)pyridine-2,6-diyl)bis(1H-1,2,3-triazole-4,1-diyl))bis(2-hydroxybenzoic acid)]
Functional Category: PEM effect: PEM effect

O=C(Nc1ccccc1)c1cc(-c2cn(-c3ccc(C(=O)O)c(O)c3)nn2)nc(-c2cn(-c3ccc(C(=O)O)c(O)c3)nn2)c1 [Compound 53, 4,4′-((4-(phenylcarbamoyl)pyridine-2,6-diyl)bis(1H-1,2,3-triazole-4,1-diyl))bis(2-hydroxybenzoic acid)]
Functional Category: PEM effect: PEM effect

CC(=O)NCCNC(=O)c1cc(-c2cn(-c3ccc(C(=O)O)c(O)c3)nn2)nc(-c2cn(-c3ccc(C(=O)O)c(O)c3)nn2)c1 [Compound 54, 4,4′-((4-((2-acetamidoethyl)carbamoyl)pyridine-2,6-diyl)bis(1H-1,2,3-triazole-4,1-diyl))bis(2-hydroxybenzoic acid)]
Functional Category: PEM effect: PEM effect

CCOC(=O)c1cc(-c2cn(-c3ccc(C(=O)O)c(C(F)(F)F)c3)nn2)nc(-c2cn(-c3ccc(C(=O)O)c(C(F)(F)F)c3)nn2)c1 [Compound 83, 4,4′-((4-(ethoxycarbonyl)pyridine-2,6-diyl)bis(1H-1,2,3-triazole-4,1-diyl))bis(2-(trifluoromethyl)benzoic acid)]
Functional Category: PEM effect: PEM effect

CCN(C)C(=O)c1cc(-c2cn(-c3ccc(C(=O)O)c(O)c3)nn2)nc(-c2cn(-c3ccc(C(=O)O)c(O)c3)nn2)c1 [Compound 85, 4,4′-((4-(ethyl(methyl)carbamoyl)pyridine-2,6-diyl)bis(1H-1,2,3-triazole-4,1-diyl))bis(2-hydroxybenzoic acid)]
Functional Category: PEM effect: PEM effect

CCN(CC)C(=O)c1cc(-c2cn(-c3ccc(C(F)(F)F)c(C(=O)O)c3)nn2)nc(-c2cn(-c3ccc(C(F)(F)F)c(C(=O)O)c3)nn2)c1 [Compound 90, 5,5′-((4-(diethylcarbamoyl)pyridine-2,6-diyl)bis(1H-1,2,3-triazole-4,1-diyl))bis(2-(trifluoromethyl)benzoic acid)]
Functional Category: PEM effect: PEM effect

CNC(=O)c1cc(-c2cn(-c3ccc(C(=O)O)c(C(F)(F)F)c3)nn2)nc(-c2cn(-c3ccc(C(=O)O)c(C(F)(F)F)c3)nn2)c1 [Compound 79, 4,4′-((4-(methylcarbamoyl)pyridine-2,6-diyl)bis(1H-1,2,3-triazole-4,1-diyl))bis(2-(trifluoromethyl)benzoic acid)]
Functional Category: PEM effect: PEM effect

CCNC(=O)c1cc(-c2cn(-c3ccc(CCCC(=O)O)cc3)nn2)nc(-c2cn(-c3ccc(CCCC(=O)O)cc3)nn2)c1 [Compound 96, 4,4′-(((4-(ethylcarbamoyl)pyridine-2,6-diyl)bis(1H-1,2,3-triazole-4,1-diyl))bis(4,1-phenylene))dibutyric acid]
Functional Category: PEM effect: PEM effect

Nc1ccc(-n2cc(-c3ccc4[nH]c5ccc(-c6cn(-c7ccc(N)cc7)nn6)cc5c4c3)nn2)cc1 [Compound 5, 4,4′-((9H-carbazole-3,6-diyl)bis(1H-1,2,3-triazole-4,1-diyl))dianiline]
Functional Category: PEM effect: PEM effect

CCNC(=O)c1cc(-c2cn(-c3ccc(C(=O)C(F)(F)F)cc3)nn2)nc(-c2cn(-c3ccc(C(=O)C(F)(F)F)cc3)nn2)c1 [Compound 86, n-ethyl-2,6-bis(1-(4-(2,2,2-trifluoroacetyl)phenyl)-1H-1,2,3-triazol-4-yl)isonicotinamide]
Functional Category: PEM effect: PEM effect
